# No constants are given. Whether binding was seen depends on the method and setting. Binding seen in cells or lysates may run through a third protein. Some results given as binding are weak or reduced against the parent protein; the word gives no strength.
# The chains behind the UniProt entries cited, without tags or fusion partners. Where a name states a change or a piece, a line headed by the entry shows the natural chain unless it says otherwise.
# UniProt Q86WV6: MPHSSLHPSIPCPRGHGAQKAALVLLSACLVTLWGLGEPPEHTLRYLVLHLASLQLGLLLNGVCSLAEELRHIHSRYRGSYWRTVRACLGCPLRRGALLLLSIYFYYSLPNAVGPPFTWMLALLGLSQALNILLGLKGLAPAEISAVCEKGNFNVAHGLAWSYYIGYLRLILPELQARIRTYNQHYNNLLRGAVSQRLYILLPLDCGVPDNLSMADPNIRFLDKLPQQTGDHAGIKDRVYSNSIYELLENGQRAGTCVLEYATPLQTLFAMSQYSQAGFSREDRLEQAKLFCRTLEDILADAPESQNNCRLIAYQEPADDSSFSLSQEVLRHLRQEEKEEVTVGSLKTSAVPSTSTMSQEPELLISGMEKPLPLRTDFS
# T1: interferon regulatory factor 8 (IRF8) (human) (UniProt Q02556)
# T1 sequence: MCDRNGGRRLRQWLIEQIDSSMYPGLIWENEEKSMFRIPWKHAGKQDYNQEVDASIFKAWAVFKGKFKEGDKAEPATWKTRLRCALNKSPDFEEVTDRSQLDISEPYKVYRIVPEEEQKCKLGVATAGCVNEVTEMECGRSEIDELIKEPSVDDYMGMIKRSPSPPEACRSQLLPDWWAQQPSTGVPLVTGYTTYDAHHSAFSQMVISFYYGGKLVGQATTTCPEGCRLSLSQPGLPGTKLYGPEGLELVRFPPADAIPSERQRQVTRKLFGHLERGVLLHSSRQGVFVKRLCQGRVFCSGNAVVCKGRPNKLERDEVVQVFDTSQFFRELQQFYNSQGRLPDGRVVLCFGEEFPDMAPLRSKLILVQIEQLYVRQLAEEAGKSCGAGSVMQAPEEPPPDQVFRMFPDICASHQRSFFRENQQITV
# T2: Sting (murine, endogenous) (mouse (endogenous in BMDMs)) (UniProt Q3TBT3)
# T2 sequence: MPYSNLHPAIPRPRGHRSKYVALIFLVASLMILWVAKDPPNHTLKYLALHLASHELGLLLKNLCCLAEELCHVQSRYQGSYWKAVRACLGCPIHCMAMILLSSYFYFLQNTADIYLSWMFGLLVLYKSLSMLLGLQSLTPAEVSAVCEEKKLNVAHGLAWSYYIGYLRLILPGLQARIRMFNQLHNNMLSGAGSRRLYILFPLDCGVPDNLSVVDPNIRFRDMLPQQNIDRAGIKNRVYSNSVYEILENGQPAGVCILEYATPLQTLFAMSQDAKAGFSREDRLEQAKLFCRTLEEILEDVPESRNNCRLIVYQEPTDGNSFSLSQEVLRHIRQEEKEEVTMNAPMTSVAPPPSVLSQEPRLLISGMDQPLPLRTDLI
# B1: interferon regulatory factor 8 (IRF8) (protein, UniProt Q02556 1-426)
# chain: T1 sequence
# B2: N-terminal DBD (aa1-200) of IRF8 (domain or fragment, UniProt Q02556 1-200)
# chain: MCDRNGGRRLRQWLIEQIDSSMYPGLIWENEEKSMFRIPWKHAGKQDYNQEVDASIFKAWAVFKGKFKEGDKAEPATWKTRLRCALNKSPDFEEVTDRSQLDISEPYKVYRIVPEEEQKCKLGVATAGCVNEVTEMECGRSEIDELIKEPSVDDYMGMIKRSPSPPEACRSQLLPDWWAQQPSTGVPLVTGYTTYDAHHS
# B3: CTT (aa375-426) of IRF8 (domain or fragment, UniProt Q02556 375-426)
# chain: RQLAEEAGKSCGAGSVMQAPEEPPPDQVFRMFPDICASHQRSFFRENQQITV
# B4: Irf3 (murine, endogenous) (protein, UniProt P70671 1-419)
# chain: METPKPRILPWLVSQLDLGQLEGVAWLDESRTRFRIPWKHGLRQDAQMADFGIFQAWAEASGAYTPGKDKPDVSTWKRNFRSALNRKEVLRLAADNSKDPYDPHKVYEFVTPGARDFVHLGASPDTNGKSSLPHSQENLPKLFDGLILGPLKDEGSSDLAIVSDPSQQLPSPNVNNFLNPAPQENPLKQLLAEEQWEFEVTAFYRGRQVFQQTLFCPGGLRLVGSTADMTLPWQPVTLPDPEGFLTDKLVKEYVGQVLKGLGNGLALWQAGQCLWAQRLGHSHAFWALGEELLPDSGRGPDGEVHKDKDGAVFDLRPFVADLIAFMEGSGHSPRYTLWFCMGEMWPQDQPWVKRLVMVKVVPTCLKELLEMAREGGASSLKTVDLHISNSQPISLTSDQYKAYLQDLVEDMDFQATGNI
# Columns and labels:
# [1] = target: STING (human) (UniProt Q86WV6); test: co-IP; transfected cells with a third protein or fragment overexpressed as competitor (Fig. S4)
# [2] = target: STING N154S (human) (UniProt Q86WV6); test: co-IP; transiently transfected HEK293T cells (HEK293 with or without cGAMP for 4 h in Fig. 5c; cells of Fig. S4 not shown); NP-40 lysis buffer, 4 °C for 3 h with antibody and Protein-G Sepharose, washes with 500 mM NaCl
# [3] = target: STING (human) (UniProt Q86WV6); test: as above
# [4] = target: STING V155M (human) (UniProt Q86WV6); test: as above
# [5] = target: T1, interferon regulatory factor 8 (IRF8) (human); test: co-IP; transfected cells with a third protein or fragment overexpressed as competitor (Fig. S4)
# [6] = target: T2, Sting (murine, endogenous) (mouse (endogenous in BMDMs)); test: co-IP; endogenous proteins, BMDMs infected with HSV-1 for the indicated times (WT and, in Fig. 4d, Irf8-/- BMDMs); NP-40 lysis buffer, washes with 500 mM NaCl
binder,measurement,setting,value
B1,binding,[1],binds
same,binding,[2],binds
same,binding,[3],binds
same,binding,[4],binds
B2,binding,[5],binds
B3,binding,[5],binds
B4,binding,[6],binds

# From publication PMC9381507
